Measured values as given in PMC5008377.
No constants are given. Whether binding was seen depends on the method and setting. Binding seen in cells or lysates may run through a third protein. Some binding calls cover weakened binding; strength is not graded here. For some assays here: Sequences can lack the tags named with a protein.

Amino acid sequences for entries named in this document (tags omitted).
UniProt Q00987: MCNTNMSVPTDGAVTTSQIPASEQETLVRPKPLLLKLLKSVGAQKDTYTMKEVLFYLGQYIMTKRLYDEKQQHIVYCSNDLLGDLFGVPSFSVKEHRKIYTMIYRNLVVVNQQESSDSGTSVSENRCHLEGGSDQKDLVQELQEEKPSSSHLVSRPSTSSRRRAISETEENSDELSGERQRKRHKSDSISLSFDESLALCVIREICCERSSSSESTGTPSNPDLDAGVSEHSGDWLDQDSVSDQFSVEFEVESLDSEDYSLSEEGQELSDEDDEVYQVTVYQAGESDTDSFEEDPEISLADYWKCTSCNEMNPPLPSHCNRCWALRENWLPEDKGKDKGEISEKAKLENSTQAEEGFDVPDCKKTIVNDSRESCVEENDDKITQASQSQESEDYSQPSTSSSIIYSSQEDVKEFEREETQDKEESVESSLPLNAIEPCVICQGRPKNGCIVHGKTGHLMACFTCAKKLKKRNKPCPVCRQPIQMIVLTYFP

Legend:
[1] = target: T1, wild-type S100P ectopically expressed in RKO cells (UniProt P25815); experiment: co-IP; immunoprecipitation with S100P-specific antibody from lysates of RKO cells ectopically expressing wild-type or dimerization-defective S100P
T1 sequence: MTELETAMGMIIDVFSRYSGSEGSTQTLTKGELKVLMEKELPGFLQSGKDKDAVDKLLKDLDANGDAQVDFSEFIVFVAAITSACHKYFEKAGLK

GST-wtS100P = target: T2, GST-wtS100P (UniProt P25815); experiment: pull-down; GST fusion proteins from bacterial lysate supernatants immobilized on Glutathione-S-Sepharose 4B beads, washed, incubated overnight with pre-cleared lysates of RKO or T47D cells containing 0.7 mM CaCl2 or 0.7 mM EGTA; immunoblot with DO-1 (p53) and 2A9 (HDM2); only the target purified
T2 sequence: T1 sequence

For “HDM2 oncoprotein (from UniProt Q00987 1-491)”, the binding [1] was “binds” and the binding (GST-wtS100P) was “binds”.
